# Measurements reported in PubChem BioAssay AID624156 (Broad Institute, 2012).
# Among all 46,000 compounds or so, about 900 (2%) were called active. The inconclusive results got no clear call from the source; some entries with a clear call stand among them for comparison. Rule as the data show it: active = ROS induction above about 79% (passing the limit was not always enough); inconclusive = no clear call, values can overlap the other calls.
# Assay: ROS inducers in U2OS cancer cells, primary screen, cell-based, H2DCF-DA fluorescence (AID 624156);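 also: 0% = DMSO vehicle median and 100% = reference compound median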
# Details: at 10 µM, active compounds read high
row,Compound,ROS induction (% of piperlongumine)
1,C[C@H](CO)N1C[C@H](C)[C@H](CN(C)C)Oc2ccc(NC(=O)CCN3CCOCC3)cc2CC1=O,inconclusive: 91.3%
2,CCCN(CCC)S(=O)(=O)c1ccc(C(=O)NN)cc1,inconclusive: 77.6%
3,COC(=O)C(CC#Cc1ccc2c(c1)[C@]1(C(=O)N2)[C@H](c2ccc(OCCO)cc2)N2[C@H](c3ccccc3)[C@H](c3ccccc3)OC(=O)[C@H]2[C@@H]1C(=O)NC[C@H](O)c1ccccc1)C(=O)OC,inconclusive: 123%
4,COc1ccc(-c2c(-c3ccc(OC)cc3)n(Cc3ccc(F)cc3)c3nc[nH]c(=O)c23)cc1,inconclusive: 114%
5,S=C(Nc1ccccc1)N1CCN(c2ccc3nnc(-c4ccccc4)n3n2)CC1,active: 240%
6,C[C@H]1CN([C@@H](C)CO)C(=O)c2cccc(NC(=O)c3nc4ccccc4s3)c2O[C@@H]1CN(C)S(=O)(=O)c1ccc(F)cc1,inconclusive: 83.8%
7,C=C(CO)C(=O)O[C@H]1CC(=C)[C@@H]2CC(=O)[C@H](C)[C@@H]2[C@H]2OC(=O)C(=C)[C@@H]21,active: 122%
8,Cn1c(=O)c2c(nc(S(C)(=O)=O)n2C)n(C)c1=O,inconclusive: 165%
9,C[C@@H]1CN([C@H](C)CO)C(=O)c2cccc(NS(=O)(=O)c3ccccc3)c2O[C@@H]1CN(C)CC1CCCCC1,inactive: -0.583%
10,C[C@@H]1CN([C@@H](C)CO)C(=O)c2cc(NC(=O)Cc3ccccc3)ccc2O[C@@H]1CN(C)C(=O)Nc1ccccc1,inactive: 11.8%
11,COc1ccc2c(c1)c(=O)c(S(=O)(=O)c1ccccc1)cn2Cc1ccccc1,inactive: 18.5%
12,C[C@@H]1CCCCO[C@@H](CN(C)S(=O)(=O)c2ccc(Cl)cc2)[C@@H](C)CN([C@H](C)CO)C(=O)c2cc(NC(=O)Cc3ccccc3)ccc2O1,inconclusive: 77.6%
13,COC(=O)C(CC#Cc1ccc2c(c1)[C@]1(C(=O)N2)[C@H](c2ccccc2OCCO)N2[C@H](c3ccccc3)[C@H](c3ccccc3)OC(=O)[C@H]2[C@@H]1C(=O)N1CCN(c2ncccn2)CC1)C(=O)OC,active: 99%
14,C[C@@H]1CN([C@H](C)CO)C(=O)c2cccc(NC(=O)C3CCOCC3)c2O[C@H]1CN(C)Cc1ccc(Oc2ccccc2)cc1,inconclusive: 76.3%
15,C[C@@H]1CN([C@@H](C)CO)C(=O)c2cccc(NC(=O)Nc3ccccc3)c2O[C@@H]1CN(C)Cc1ccc(C(F)(F)F)cc1,inconclusive: 238%
16,Cc1cc(C)c(C#N)c(SCC(=O)C2CC2)n1,inactive: 3.01%
17,C[C@H]1CN([C@@H](C)CO)C(=O)c2cccc(NS(C)(=O)=O)c2O[C@@H]1CN(C)Cc1ccc(-c2ccccc2)cc1,active: 97.7%
18,Cc1ccc(S(=O)(=O)Nc2ccc3c(c2)C(=O)N([C@@H](C)CO)C[C@H](C)[C@@H](CN(C)Cc2ccc(C(F)(F)F)cc2)O3)cc1,inconclusive: 83.1%
19,O=C(N/N=C/c1ccccc1Cl)c1ccccn1,inconclusive: 149%
20,COc1ccc(S(=O)(=O)Nc2ccc3c(c2)CC(=O)N([C@H](C)CO)C[C@@H](C)[C@H](CN(C)Cc2ccc(-c4ccccc4)cc2)O3)cc1,inconclusive: 83.6%
21,COc1ccc(C(=O)Nc2ccc(C)c(C)c2)cc1,inconclusive: 103%
22,COc1ccc(-c2nnc3c4ccccc4c(C)nn23)cc1S(N)(=O)=O,inconclusive: 104%
23,COC(=O)c1c(C)ncc2c1COC(C)OC2 (stereo unspecified),inconclusive: 194%
24,Cc1cc(C)c(NC(=S)NC(=O)c2ccccc2)c(C)c1,inactive: 30.6%
25,Cc1ccc(-c2nnc(N3CCCCC3)c3ccccc23)cc1C,inconclusive: 88.5%
26,COc1cc(-c2coc3cc(OCc4ccccc4)c(OC)c(O)c3c2=O)cc(O)c1OC,inconclusive: 75.5%

row,Compound,ROS induction (% of piperlongumine)
1,Cc1ccc(S(=O)(=O)Nc2cccc3c2O[C@H](CN(C)Cc2ccc(-c4ccccc4)cc2)[C@@H](C)CN([C@H](C)CO)C3=O)cc1,inconclusive: 79.6%
2,C[C@@H]1CN([C@H](C)CO)C(=O)c2cc(NC(=O)c3ccncc3)ccc2O[C@H]1CN(C)C(=O)Nc1cccc2ccccc12,inconclusive: 75.6%
3,C[C@@H]1CN([C@@H](C)CO)C(=O)Cc2cc(NS(=O)(=O)c3cn(C)cn3)ccc2O[C@@H]1CN(C)S(C)(=O)=O,active: 109%
4,O=C(CSCc1ccc(F)cc1)NC1CCCCC1,inactive: -8.89%
5,Cc1ccc(S(=O)(=O)c2cn(Cc3cccc(Cl)c3)c3cc4c(cc3c2=O)OCO4)cc1,active: 97.5%
6,C[C@@H]1CN([C@@H](C)CO)C(=O)Cc2cc(NC(=O)CCCCCC(=O)Nc3ccccc3N)ccc2O[C@@H]1CN(C)C(=O)Nc1cccc2ccccc12,inconclusive: 94.3%
7,COC(=O)CCCCCCC(=O)N/N=C/c1cc(OC)ccc1Br,inconclusive: 79.5%
8,C[C@@H]1CN([C@@H](C)CO)C(=O)c2cc(NS(=O)(=O)c3ccc(F)cc3)ccc2O[C@@H]1CN(C)C(=O)Nc1ccc(C(F)(F)F)cc1,inactive: 24.8%
9,O=C(O)CNc1ncnc2oc(-c3ccccc3)c(-c3ccccc3)c12,inconclusive: 79.7%
10,Cc1ccccc1S(=O)(=O)N(C)C[C@H]1OCc2cnnn2CCCC(=O)N([C@H](C)CO)C[C@@H]1C,inconclusive: 78.5%
11,COc1ccc(/C=C2/NC(=O)NC2=O)cc1,inactive: -21.6%
12,C[C@@H]1CN([C@H](C)CO)C(=O)Cc2cc(NC(=O)C3CCCCC3)ccc2O[C@@H]1CN(C)Cc1ccc(Oc2ccccc2)cc1,inconclusive: 101%
13,O=C(C(Cc1ccccc1Cl)C(=O)N1CCc2ccccc21)N1CCc2ccccc21,active: 141%
14,C[C@@H]1CN([C@H](C)CO)C(=O)Cc2cc(NC(=O)Cn3cnnn3)ccc2O[C@@H]1CN(C)Cc1ccc(C(F)(F)F)cc1,active: 86.8%
15,C[C@H]1CN([C@@H](C)CO)C(=O)c2cccc(NC(=O)c3nc4ccccc4s3)c2O[C@H]1CN(C)Cc1ccc(C(=O)Nc2ccccc2N)cc1,active: 172%
16,C[C@@H]1CN([C@H](C)CO)C(=O)Cc2cc(NC(=O)CCCCCC(=O)Nc3ccccc3N)ccc2O[C@H]1CN(C)Cc1ccc(Oc2ccccc2)cc1,inactive: 39.5%
17,O=C(Nc1sc2c(c1C(=O)NCC1CCCO1)CCCC2)c1ccc(Cl)cc1Cl (stereo unspecified),inconclusive: 78.8%
18,C[C@H](CO)N1C[C@H](C)[C@@H](CN(C)CC2CC2)Oc2ccc(NS(=O)(=O)c3cccs3)cc2C1=O,inconclusive: 664%
19,C=CCNC(=O)[C@@H]1[C@H]2C(=O)O[C@H](c3ccccc3)[C@H](c3ccccc3)N2[C@H](c2ccc(OCCO)cc2)[C@@]12C(=O)Nc1ccc(C#CC3(O)CCCCCC3)cc12,active: 85.1%
20,CCOC(=O)c1oc2cc(O)c(CC)cc2c(=O)c1-c1ccc2c(c1)OCCO2,inactive: 35.7%
21,C=C1C(=O)O[C@@H]2/C=C(\C)[C@H](OC(C)=O)C/C=C(/C)C[C@@H](OC(=O)/C(=C/CO)CO)C12 (stereo partly specified),inconclusive: 77.5%
22,C[C@H]1CN([C@@H](C)CO)C(=O)c2cccc(NS(=O)(=O)c3cccs3)c2O[C@@H]1CN(C)Cc1ccc(C(F)(F)F)cc1,inconclusive: 95.4%
23,COc1ccc(NC(=O)CN(c2ccc(F)c(Cl)c2)S(C)(=O)=O)c(OC)c1,inactive: 4.31%
24,COc1ccc(OCC(=O)Nc2ccc(-c3nc4cc(C)ccc4o3)cc2)cc1,inactive: 9.27%
25,Cc1noc(C)c1NC(=O)N(C)C[C@H]1Oc2ccc(NS(=O)(=O)c3cccs3)cc2C(=O)N([C@H](C)CO)C[C@@H]1C,inconclusive: 79.3%
26,Cc1ccc(NC(=O)CSc2nc3cc(Cl)ccc3s2)c(C)c1,inconclusive: 77.2%

row,Compound,ROS induction (% of piperlongumine)
1,O=S(=O)(c1ccccc1)N1CCN(CC(O)COc2ccc3c(c2)CCC3)CC1 (stereo unspecified),inactive: 6.75%
2,C[C@H](CO)N1C[C@H](C)[C@H](CN(C)Cc2ccc(-c3ccccc3)cc2)Oc2ccc(NS(=O)(=O)c3cccs3)cc2CC1=O,active: 78.4%
3,COc1ccc(Cl)cc1NC(=O)CSc1nc(N)cc(=O)[nH]1,inactive: -5.21%
4,N#CCNC(=O)c1ccc(-c2ccccc2)cc1,inactive: 4.65%
5,C[C@@H]1CN([C@@H](C)CO)C(=O)Cc2cc(NC(=O)CCCCCC(=O)Nc3ccccc3N)ccc2O[C@@H]1CN(C)Cc1ccc(Oc2ccccc2)cc1,inconclusive: 129%
6,C[C@@H]1CN([C@H](C)CO)C(=O)c2cccc(N(C)C)c2O[C@@H]1CN(C)Cc1ccc(C(=O)Nc2ccccc2N)cc1,inactive: -9.23%
7,CC(C)NC(=O)Nc1ccc2c(c1)C(=O)N([C@H](C)CO)C[C@H](C)[C@H](CN(C)C(=O)Nc1ccc(C(F)(F)F)cc1)OCCCC[C@@H](C)O2,inconclusive: 88.5%
8,CC(C)(C)OC(=O)CC[C@@]12N=C(c3ccc(OCCCO)cc3)O[C@@H]1c1ccccc1CN(Cc1ccccc1)C2=O,inconclusive: 80.9%
9,O=C(c1cccs1)N1N=C2c3ccccc3CCC2C1c1ccccc1Cl (stereo unspecified),inconclusive: 75.2%
10,CCOc1ccc(S(=O)(=O)NCc2ccccc2)cc1-c1nc2c(C(C)(C)C)nn(C)c2c(=O)[nH]1,active: 201%
11,C/C=C1\C(O[C@@H]2O[C@H](CO)[C@@H](O)[C@H](O)[C@H]2O)OC=C(C(=O)OC)C1CC(=O)OC[C@@H]1[C@H](C)[C@@H](OC(=O)CC2C(C(=O)OC)=COC(O[C@@H]3O[C@H](CO)[C@@H](O)[C@H](O)[C@H]3O)/C2=C\C)C[C@H]1C(CO)CO (stereo partly specified),inconclusive: 543%
12,Cc1ccc(-n2c(SCC(=O)c3ccc(Cl)cc3)nnc2-c2ccco2)cc1,inactive: 46.5%
13,C[C@@H]1CCCCO[C@@H](CN(C)CC2CCCCC2)[C@@H](C)CN([C@H](C)CO)C(=O)c2cc(NC(=O)C3CCCCC3)ccc2O1,inconclusive: 76.7%
14,Cc1noc(C)c1NC(=O)N(C)C[C@@H]1Oc2c(NC(=O)Nc3ccc4c(c3)OCO4)cccc2C(=O)N([C@@H](C)CO)C[C@H]1C,active: 115%
15,CCc1cccc(C)c1NC(=O)CSc1n[nH]c(-c2ccccc2Cl)n1,inactive: -13.2%
16,COc1ccc(NC(=O)N(C)C[C@@H]2OCCCC[C@@H](C)Oc3ccc(NC(=O)Nc4ccc5c(c4)OCO5)cc3C(=O)N([C@H](C)CO)C[C@@H]2C)cc1,active: 118%
17,Cc1nnc(SCC(=O)Nc2ccc(Cl)cc2)n1-c1ccccc1,inactive: -24.8%
18,Cn1c(S(=O)(=O)CC(N)=O)nc2ccccc21,inactive: -5.96%
19,COc1cc(NC(=O)c2ccc(CSC3CCCCC3)cc2)cc(OC)c1OC,active: 135%
20,CC(=O)c1ccc(NC(=O)CNS(=O)(=O)c2cccc(Cl)c2)cc1,inconclusive: 87%
21,C[C@@H]1CCCCO[C@H](CN(C)S(=O)(=O)c2ccccc2)[C@@H](C)CN([C@H](C)CO)C(=O)c2cc(NC(=O)Nc3ccc(C(F)(F)F)cc3)ccc2O1,active: 80%
22,CN(/N=C/c1ccccc1)C1=NS(=O)(=O)c2ccccc21,active: 96.1%
23,Cc1ccc(NC(=S)C(C#N)C(N)=O)cc1Cl (stereo unspecified),inactive: 17.6%
24,S=C(NC1CCCCC1)C12CCC3CC(CC(C3)C1)C2,inconclusive: 89.7%

# 7 entries drawn at random from the list so far:
row,Compound,ROS induction (% of piperlongumine)
12,Cc1ccc(-n2c(SCC(=O)c3ccc(Cl)cc3)nnc2-c2ccco2)cc1,inactive: 46.5%
5,C[C@@H]1CN([C@@H](C)CO)C(=O)Cc2cc(NC(=O)CCCCCC(=O)Nc3ccccc3N)ccc2O[C@@H]1CN(C)Cc1ccc(Oc2ccccc2)cc1,inconclusive: 129%
17,Cc1nnc(SCC(=O)Nc2ccc(Cl)cc2)n1-c1ccccc1,inactive: -24.8%
16,COc1ccc(NC(=O)N(C)C[C@@H]2OCCCC[C@@H](C)Oc3ccc(NC(=O)Nc4ccc5c(c4)OCO5)cc3C(=O)N([C@H](C)CO)C[C@@H]2C)cc1,active: 118%
8,CC(C)(C)OC(=O)CC[C@@]12N=C(c3ccc(OCCCO)cc3)O[C@@H]1c1ccccc1CN(Cc1ccccc1)C2=O,inconclusive: 80.9%
2,C[C@H](CO)N1C[C@H](C)[C@H](CN(C)Cc2ccc(-c3ccccc3)cc2)Oc2ccc(NS(=O)(=O)c3cccs3)cc2CC1=O,active: 78.4%
6,C[C@@H]1CN([C@H](C)CO)C(=O)c2cccc(N(C)C)c2O[C@@H]1CN(C)Cc1ccc(C(=O)Nc2ccccc2N)cc1,inactive: -9.23%
